Hit rate of the full screen: of about 320,000 compounds, about 22,000 (6.9%) were called active. The inconclusive results got no clear call from the source; some entries with a clear call stand among them for comparison. Calls come from the whole dose curve; as a rule, active = well fitted inhibition curve with a large enough effect; inconclusive = small, poorly fitted or top-dose-only effect, or another doubt; inactive = no such curve, though single readings can be large or run the other way. Potencies of inconclusive entries are doubtful fits and often do not repeat.
experiment: Primary qHTS for delayed death inhibitors of the malarial parasite plastid, 96 hour incubation; conditions: P. falciparum luciferase reporter growth; series mostly up to 28.7 µM
In short: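 P. falciparum expressing integrated firefly luciferase grown in erythrocytes (2% hematocrit, 0.05% parasitemia final) with compounds for 96 hours at 37 C, 5% CO2. Growth inhibition read as loss of luminescence after adding luciferase detection reagent.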
Potency is the fitted concentration of half-maximal effect.

| Structure (SMILES) | Potency |
| --- | --- |
| Cc1c(Cl)cccc1NC(=O)C(=O)NNC(=O)c1ccccc1F | inactive |
| Cc1ccc2c(CC(=O)NC3CCCc4ccccc43)coc2c1 (centres undefined) | inactive |
| COCCNC(=O)c1cccc(OC2CCN(C(C)COc3ccccc3)CC2)c1 (centres undefined) | inconclusive: 10.4 µM [inhibitor, single point] |
| Cc1ccc(NS(=O)(=O)c2c(C(=O)N3CCOCC3)c(C)n(C)c2C)cc1 | inconclusive: 18.5 µM [inhibitor, single point] |
| COc1ccc(-c2csc3nc(-c4ccccc4OC)oc(=O)c23)cc1 | inactive |
| OCCC#Cc1ccc(CN2CCN(Cc3ccccc3)C(CCO)C2)cc1 (centres undefined) | inconclusive: 18.5 µM [inhibitor, single point] |
| CCOc1ccc(-c2nc[nH]c2[N+](=O)[O-])cc1 | inconclusive: 4.15 µM [inhibitor, partial curve] |
| COc1cccc(NC(=O)COC(=O)c2nc3nccc(C)n3n2)c1 | inconclusive: 0.329 µM [inhibitor, full curve, poor fit] |
| CCOC(=O)C1CCN(C(=O)c2ccc3c(Cl)c4c(nc3c2)CCCC4)CC1 | inconclusive: 0.0029 µM [inhibitor, full curve, poor fit] |
| Cc1ccccc1CC(=O)Nc1ccc2c(c1)CCC2 | inactive |
| Cc1cccc2cc(/C=N/NC(=O)c3ccncc3)c(Cl)nc12 | inconclusive: 0.657 µM [inhibitor, full curve, poor fit] |
| COc1cc(C(N)=O)cc(Cl)c1OC | inconclusive: 9.28 µM [inhibitor, partial curve, poor fit] |
| COc1ccc(CCNC(=S)N2CCN(S(=O)(=O)c3ccccc3F)CC2)cc1 | inconclusive: 18.5 µM [inhibitor, single point] |
| CCCN(CCC)CCCNC(=O)C1CCC(CNS(=O)(=O)c2cccc3nsnc23)CC1 (centres undefined) | inconclusive: 18.5 µM [inhibitor, single point] |
| O=C(NC1CC2CCCC(C1)N2S(=O)(=O)c1ccccc1)C1CCCCC1 (centres undefined) | inconclusive: 10.4 µM [inhibitor, single point] |
| C[C@H](NC(=O)c1nc[nH]c1C(=O)NCC(=O)OC(C)(C)C)c1ccccc1 | inconclusive: 0.165 µM [inhibitor, full curve, poor fit] |
| COc1ccc([C@H]2CC(=O)C=C(c3cccc(Cl)c3)C2)cc1OC | inconclusive: 7.38 µM [inhibitor, partial curve, poor fit] |
| COc1c(O)cc2oc(-c3ccc(O)cc3)cc(=O)c2c1O | inactive |
| O=C(Nc1ccccc1C(=O)O)/C(=C/c1ccc(Cl)cc1Cl)NC(=O)c1ccco1 | inconclusive: 18.5 µM [inhibitor, single point] |
| COc1ccc(C(C)(C)C)cc1NC(=O)c1ccc2ncsc2c1 | inconclusive: 20.8 µM [inhibitor, single point] |
| O=C(CSc1nnc(-c2ccc(F)cc2)o1)N1CCCC1 | inconclusive: 11.7 µM [inhibitor, partial curve, poor fit] |
| O=C(C1CCC(=O)N(C2CCCC2)C1)N1CCC(Oc2cccc(F)c2)CC1 (centres undefined) | inconclusive: 7.38 µM [inhibitor, partial curve] |

Some of the entries so far, tab-delimited:
Structure (SMILES)	Potency
Cc1ccc(NS(=O)(=O)c2c(C(=O)N3CCOCC3)c(C)n(C)c2C)cc1	inconclusive: 18.5 µM [inhibitor, single point]
COc1ccc(-c2csc3nc(-c4ccccc4OC)oc(=O)c23)cc1	inactive

Going on with the list.

| Structure (SMILES) | Potency |
| --- | --- |
| Cc1cc([N+](=O)[O-])cc2c1-c1ncccc1C2=Nc1ccccc1 | inconclusive: 18.5 µM [inhibitor, single point] |
| O=C1C(Cl)=C(N2CCCCC2)C(=O)N1Cc1ccccc1 | inconclusive: 11.7 µM [inhibitor, single point] |
| CCOC(=O)/C(=N\Nc1ccccc1Cl)N(C)C1CCS(=O)(=O)C1 (centres undefined) | inconclusive: 2.62 µM [inhibitor, single point] |
| OCC1(Cc2ccccc2F)CCCN(CCc2ccccc2)C1 (centres undefined) | inconclusive: 4.65 µM [inhibitor, partial curve, poor fit] |
| Cn1c(SCc2ccccc2)nnc1-c1cnccn1 | inactive |
| CCN(CC)C(=O)C(Oc1ccc(S(=O)(=O)N2CCCC2)cc1[N+](=O)[O-])c1ccccc1 (centres undefined) | inconclusive: 18.5 µM [inhibitor, single point] |
| N/C(=N\OC(=O)/C=C/c1ccccc1)c1ccc(Cl)cc1 | inconclusive: 5.22 µM [inhibitor, partial curve] |
| NC(=O)Cn1nnc(-c2ccc(NC(=O)c3ccc(F)cc3)cc2)n1 | inconclusive: 18.5 µM [inhibitor, single point] |
| CCn1c(=O)c(-[n+]2ccccc2)c(O)c2ccccc21 | inconclusive: 10.4 µM [inhibitor, single point] |
| COc1cc(-c2nc(C(=O)NCC3CCCO3)cc3c2[nH]c2ccccc23)cc(OC)c1OC (centres undefined) | active: 6.57 µM |
| CCCCCCSc1ccc(-c2nc3ccc(C)cn3c2NCc2ccccc2)cc1OC | active: 4.65 µM |
| CCCOc1ccc(C(=O)Nc2ccc(CN3CCOCC3)cc2)cc1 | inconclusive: 18.5 µM [inhibitor, single point] |
| Cc1ccc(NC(=O)N2N=C(c3ccc(F)cc3)CC2c2ccc(F)cc2)cc1 (centres undefined) | inactive |
| CSCCC1NC(=S)N(Cc2ccccc2)C1=O (centres undefined) | inactive |
| NCCNc1cccc2ccccc12 | inconclusive: 7.57 µM [inhibitor, partial curve] |
| O=c1[nH]n(-c2ccc(Cl)cc2)c(=O)c(Cl)c1Cl | inactive |
| CC(C)c1ccc(CNn2cnnc2)cc1 | inconclusive: 18.5 µM [inhibitor, single point] |
| Cc1cc(NC(=O)Nc2cccc(Cl)c2)n(-c2ccccn2)n1 | inconclusive: 13.1 µM [inhibitor, single point] |
| CCOC(=O)N1CCN(CC(=O)c2ccc3c(c2)CCN3C(C)=O)CC1 | inactive |
| Cc1c(/C=N/NC(N)=O)c2ccccn2c1C(=O)c1ccc(F)cc1 | inconclusive: 18.5 µM [inhibitor, single point] |
| O=C(Nc1cccc(C(F)(F)F)c1)n1cc(-c2ccccn2)c(N2CCOCC2)n1 | inconclusive: 8.28 µM [inhibitor, partial curve] |
| C[C@H]1CCC/C=C/C2C[C@H](O)CC2[C@H](O)/C=C/C(=O)O1 (some centres undefined) | active: 2.08 µM |
